Some of the results follow.
These molecules were tested on T1, CTL2-GFP (C. trachomatis L2/434/Bu, GFP-expressing). Conditions: bulk GFP, single well; 28.5 h, 10 µM; inhibitor.
T1 construct: L2/434/Bu, GFP-expressing
Design: species or system HeLa; Intracellular C. trachomatis growth in HeLa cells, bulk GFP fluorescence relative to DMSO
`O=C(CCCC1CCNCC1)Nc1nnc(C2CC2)s1` [CBK169224] was tested, and the “% of control remaining” value was 121.507%.
For `COc1cc([N+](=O)[O-])ccc1NC(=S)NNS(=O)(=O)c1cc(Cl)c(Cl)cc1Cl` [CBK266863], the “% of control remaining” value was 183.225%.
In the case of `CCN1CCCC1CNC(=O)c1cc(Br)cnc1N(C)S(C)(=O)=O` (centres unmarked) [CBK076520], the “% of control remaining” value is reported as 98.7392%.
In the case of `N#Cc1c2c(c(Nc3ccc(C4CCCCC4)cc3)n3c1nc1ccccc13)CCC2` [CBK263122], the “% of control remaining” value is reported as 108.092%.
`Cc1cc(C)n(CC(=O)Nc2nc(CN3CCC(C)CC3)cs2)n1` [CBK305592] was tested, and the “% of control remaining” value was 105.744%.
With `O=S1(=O)CCN(Cc2ccc3c(c2)OCO3)CC1` [CBK074780] the “% of control remaining” value was 109.98%.
`OCc1ccccc1-c1cncc(Nc2cccc(Cl)c2)n1` [CBK065400] was tested, and the “% of control remaining” value was 104.702%.
In the case of `CC(C)(C)O/N=C/c1cccnc1` [CBK015761C], the “% of control remaining” value is reported as 105.303%.
`O=C(O)CNC(=O)c1ccc(S(=O)(=O)N2CCCC2)cc1` [CBK267434] was tested, and the “% of control remaining” value was 122.823%.
`N#CCCN(C(=O)NCCOc1ccccc1)C1CCCCC1` [CBK156374] was tested, and the “% of control remaining” value was 175.275%.
With `CCc1nc2ccc(NC(=O)c3csc(C(C)=O)c3)cc2[nH]1` [CBK282538] the “% of control remaining” value was 83.0614%.
In the case of `O=C(CNc1ccc2ccccc2c1)N/N=C/c1cc2c(cc1[N+](=O)[O-])OCO2` [CBK261126], the “% of control remaining” value is reported as 89.8477%.
With `COc1nc2ccccc2nc1CCC(=O)O` [CBK269356] the “% of control remaining” value was 146.238%.
In the case of `CC(=O)Nc1cccc(-c2nc(-c3ccc(C#N)cc3)cnc2N)c1` [CBK113659], the “% of control remaining” value is reported as 108.145%.
`O=C(Nc1ncnc2c1ccn2C1CC(O)C(CO)O1)c1ccccc1` (centres unmarked) [CBK201289] was tested, and the “% of control remaining” value was 132.901%.
For `COc1cc(C2C(C(=O)c3cccs3)=C(O)C(=O)N2Cc2cccnc2)ccc1O` (centres unmarked) [CBK264605], the “% of control remaining” value was 97.3337%.
`Cc1sc2ncn(CC(=O)Nc3cccnc3)c(=O)c2c1C` [CBK306057] was tested, and the “% of control remaining” value was 114.977%.
`COc1ccc(S(=O)(=O)NCCCN2CCOCC2)c(Cl)c1Cl` [CBK269792] was tested, and the “% of control remaining” value was 127.966%.
In the case of `N#CC(C(=O)CN1CCCC1)c1ccccc1` (centres unmarked) [CBK269333], the “% of control remaining” value is reported as 158.743%.
`O=C(O)c1ccc2c(c1)C1C=CCC1C(c1cccc([N+](=O)[O-])c1)N2` (centres unmarked) [CBK287008] was tested, and the “% of control remaining” value was 133.292%.
With `CSCCC(NC(=O)c1ccccc1NC(=O)c1ccc(C)cc1)C(=O)O` (centres unmarked) [CBK296067] the “% of control remaining” value was 140.208%.
For `CCCn1ccnc1SCC(=O)Nc1ccc(N(C)C)cc1` [CBK304996], the “% of control remaining” value was 108.629%.
With `Cn1c2c(c3ccccc31)C(=O)NCC2` [CBK003517] the “% of control remaining” value was 164.833%.
For `Cc1cccc(N(CC(=O)Nc2cccnc2)S(=O)(=O)c2ccc(Cl)cc2)c1` [CBK268676], the “% of control remaining” value was 116.886%.
`CCN(CC)C(=O)CN1CCC(c2ccc(F)cc2)CC1` [CBK285475] was tested, and the “% of control remaining” value was 115.826%.
`Cc1noc(C)c1S(=O)(=O)Nc1cccc(C(=O)N2CCN(C)CC2)c1` [CBK038972] was tested, and the “% of control remaining” value was 107.832%.
In the case of `Cc1cc(Cl)c(OCCN2CCCCCC2)c(Br)c1` [CBK266049G], the “% of control remaining” value is reported as 109.391%.
In the case of `O=C(Cn1cc(C(=S)N2CCOCC2)c2ccccc21)Nc1ccc2c(c1)OCO2` [CBK266703], the “% of control remaining” value is reported as 172.34%.
In the case of `O=C(C1CCCC1)N1C[C@@H]2CCCCN(CC3CC3)[C@@H]2C1` [CBK285493], the “% of control remaining” value is reported as 122.521%.
In the case of `CN1CCC(CNC(=O)C2(c3ccccc3F)CC2)(N(C)C)CC1` [CBK282604], the “% of control remaining” value is reported as 115.864%.
With `O=C(c1nccs1)C1CCN(C(=O)Cc2ccccc2F)CC1` [CBK284161] the “% of control remaining” value was 123.846%.
For `CC(C)(C)NC(=O)c1ccc(-n2ccnc2)c(-n2cccc2)c1` [CBK284811], the “% of control remaining” value was 126.975%.
`Cc1ccc(NC(=O)c2ccc(-c3cccc([N+](=O)[O-])c3)o2)cc1-c1nc2ncccc2o1` [CBK262947] was tested, and the “% of control remaining” value was 121.399%.
With `O=C(O)CCc1ccc(S(=O)(=O)N2CCOCC2)cc1` [CBK287224] the “% of control remaining” value was 113.288%.
For `CC(C)(C)c1ccc(-c2nc(N)cc3ccccc23)cc1` [CBK085720], the “% of control remaining” value was 57.4339%.
In the case of `CCCC(=O)c1ccc(S(=O)(=O)N2CCCN(Cc3ccc(C#N)cc3)CC2)cc1` [CBK062895], the “% of control remaining” value is reported as 67.7976%.
`O=C(C1CCCC1)N1CCCc2cc(C(O)CN3CCCC3)ccc21` (centres unmarked) [CBK282145] was tested, and the “% of control remaining” value was 135.753%.
With `CN(C)CCOCCS(=O)(=O)c1ccc(N2CCC(c3ccc(Cl)cc3)=N2)cc1` [CBK018115] the “% of control remaining” value was 94.4989%.
For `Cc1cc(C)nc(Nc2ncc(O)n2-c2ccccc2C)n1` [CBK263024], the “% of control remaining” value was 100%.
For `COc1cccc(/C=C2/SC(=S)NC2=O)c1OCCCOc1ccccc1C` [CBK264442], the “% of control remaining” value was 129.826%.
For `Cc1nn(C)c(Cl)c1S(=O)(=O)NCc1ccc(C(F)(F)F)c(F)c1` [CBK062111], the “% of control remaining” value was 108.416%.
For `CC(=O)c1ccc(-c2ccc(C(=O)NCCc3ccc(S(N)(=O)=O)cc3)c(N(C)C(C)=O)n2)s1` [CBK076621], the “% of control remaining” value was 152.934%.
With `CS(=O)(=O)Nc1ccc(C(=O)N2CC(=O)Nc3ccccc32)cc1` [CBK269827] the “% of control remaining” value was 90.6079%.
`Cc1c(-c2cccc(Cl)c2)nc2ccccc2c1C(=O)NCCc1ccc(S(N)(=O)=O)cc1` [CBK267784] was tested, and the “% of control remaining” value was 105.679%.
`Clc1ccc(CN2CCN(c3nccnc3OCc3cccnc3)CC2)cc1Cl` [CBK083128T] was tested, and the “% of control remaining” value was 117.28%.
For `Cc1ccc(C(=O)Nc2cccc(-c3nc4ncccc4o3)c2C)cc1[N+](=O)[O-]` [CBK262793], the “% of control remaining” value was 118.14%.
With `Cc1cc(=O)n(CC(=O)N2CCC3(CCCN(C(C)C)C3=O)C2)nc1C` (centres unmarked) [CBK307482] the “% of control remaining” value was 113.599%.
For `NC(=O)C(=O)c1c(-c2ccccc2)cc2ccccn12` [CBK288466], the “% of control remaining” value was 121.602%.
`Cc1ccc(-c2nc(C3CCCN(C(=O)NC4CCCCC4)C3)n3ccccc23)cc1` (centres unmarked) [CBK047241] was tested, and the “% of control remaining” value was 88.3827%.
In the case of `CC(C)n1c(NCc2nc3ccccc3n2C)nc2ccccc21` [CBK265571], the “% of control remaining” value is reported as 120.134%.

Source: publication PMC12040169 (PLOS Biology, 2025)
